Results are given in words; binding and its absence hold for the method and conditions named. Binding seen in cells or lysates may run through a third protein. One block for each binder: values may come before it.
Legend:
[1] = biological target: T1, P2X1 receptor (mouse (endogenous in mouse bladder)) (UniProt P51576); assay: co-IP; anti-P2X1 antibody (Alomone APR-001) immobilised on amine-reactive resin beads (Pierce Co-IP Kit), incubated with native mouse bladder lysate (wild type and P2X4-/-); bound (IP) and non-bound (FT) fractions blotted for P2X1, P2X4 and Nt5e
T1 sequence: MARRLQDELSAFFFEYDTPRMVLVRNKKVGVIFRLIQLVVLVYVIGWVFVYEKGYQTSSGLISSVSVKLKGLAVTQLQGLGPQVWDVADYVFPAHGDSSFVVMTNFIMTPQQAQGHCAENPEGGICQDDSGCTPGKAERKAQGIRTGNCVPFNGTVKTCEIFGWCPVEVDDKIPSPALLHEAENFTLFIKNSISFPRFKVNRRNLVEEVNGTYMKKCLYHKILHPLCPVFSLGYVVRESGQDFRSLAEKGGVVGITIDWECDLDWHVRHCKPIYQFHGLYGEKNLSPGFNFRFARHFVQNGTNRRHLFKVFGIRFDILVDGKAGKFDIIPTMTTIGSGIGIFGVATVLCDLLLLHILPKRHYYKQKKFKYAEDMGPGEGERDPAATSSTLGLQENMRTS

[2] = biological target: T2, P2X4 receptor (mouse (endogenous in mouse bladder)) (UniProt Q9JJX6); assay: co-IP; anti-P2X4 antibody (Alomone APR-002) immobilised on amine-reactive resin beads (Pierce Co-IP Kit), incubated with native mouse bladder lysate (wild type and P2X4-/-); bound (IP) and non-bound (FT) fractions blotted for P2X1, P2X4 and Nt5e
T2 sequence: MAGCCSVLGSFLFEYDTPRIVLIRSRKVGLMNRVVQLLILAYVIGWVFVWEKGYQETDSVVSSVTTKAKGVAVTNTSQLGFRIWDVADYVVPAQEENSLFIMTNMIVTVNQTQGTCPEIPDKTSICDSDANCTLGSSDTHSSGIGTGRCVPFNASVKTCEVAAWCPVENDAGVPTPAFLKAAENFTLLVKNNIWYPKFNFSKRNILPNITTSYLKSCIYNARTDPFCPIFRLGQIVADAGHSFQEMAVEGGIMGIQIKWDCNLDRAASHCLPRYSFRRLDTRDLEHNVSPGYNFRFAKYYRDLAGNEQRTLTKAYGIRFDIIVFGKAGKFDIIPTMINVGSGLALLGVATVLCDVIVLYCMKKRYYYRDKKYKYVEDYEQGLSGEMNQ

binding [1]: no binding
binding [2]: no binding
B1: 5′-nucleotidase (Nt5e) (enzyme, UniProt Q61503 29-551)
chain: WELTILHTNDVHSRLEQTSDDSTKCLNASLCVGGVARLFTKVQQIRKEEPNVLFLDAGDQYQGTIWFTVYKGLEVAHFMNILGYDAMALGNHEFDNGVEGLIDPLLRNVKFPILSANIKARGPLAHQISGLFLPSKVLSVGGEVVGIVGYTSKETPFLSNPGTNLVFEDEISALQPEVDKLKTLNVNKIIALGHSGFEMDKLIAQKVRGVDIVVGGHSNTFLYTGNPPSKEVPAGKYPFIVTADDGRQVPVVQAYAFGKYLGYLKVEFDDKGNVITSYGNPILLNSSIPEDATIKADINQWRIKLDNYSTQELGRTIVYLDGSTQTCRFRECNMGNLICDAMINNNLRHPDEMFWNHVSMCIVNGGGIRSPIDEKNNGTITWENLAAVLPFGGTFDLVQLKGSTLKKAFEHSVHRYGQSTGEFLQVGGIHVVYDINRKPWNRVVQLEVLCTKCRVPIYEPLEMDKVYKVTLPSYLANGGDGFQMIKDELLKHDSGDQDISVVSEYISKMKVVYPAVEGRIKFS

binding [2]: no binding
B2: P2X1 receptor (receptor, UniProt P51576 1-399)
chain: T1 sequence

binding [1]: no binding
B3: P2X4 receptor (receptor, UniProt Q9JJX6 1-388)
chain: T2 sequence
